Where “and” joins values, the source holds several entries; their conditions need not be identical. Identical values can stand only once.
How the values were obtained:
[1] = Singlet oxygen quantum yield with ADMDA trap
[2] = DHR123 oxidation, cell-free superoxide (type I ROS) detection; settings: PBS (pH 7.4), 660 nm LED, 100 s
U118MG cells [3] = assay: Cellular uptake assay; format: cell-based, human; settings: 100 μM, 1 h
U118MG cells [4] = assay: Subcellular co-localization by confocal microscopy (PCC); format: cell-based, human; settings: 2.5 μM; for PCC, lysosomal colocalization: across time points 0.5–4 h
L929 cells = assay: Cellular uptake assay; format: cell-based, mouse; settings: L929, 100 μM, 1 h
U87MG glioblastoma cells = assay: MTT cell viability, dark and PDT; format: cell-based, human; settings: for In vitro TI = IC50,dark,healthycells/IC50,light,cancercells / SI = IC50,light,healthycells/IC50,light,cancercells: L929 vs U87MG; for PI, phototoxicity index = IC50,dark/IC50,light: U87MG
Description: (§1) The time- and concentration-dependent effects of NSeAze and NSeMorph on glioblastoma cells were determined by using the MTT assay (Figure S7). In this regard, U118MG and U87MG cells were administered with NSeMorph (0.5–20 μM) and NSeAze (0.01–2.5 μM) for 24 h to evaluate their dark toxicity. Before PDT application, both cell lines were treated as indicated for 1 h and then exposed to 660 nm LED light for 2 and 1 h, respectively (Figure ). Following overnight incubation, the resulting cell viability was calculated and compared to the effect of both compounds in the absence of irradiation. […]
(§2) Cell Culture and Treatment
(§3) Human glioblastoma cell lines (U118MG and U87MG) and healthy mouse fibroblast cells (L929) were cultured in DMEM high glucose medium supplemented with 10% fetal bovine serum (FBS), 2 mM glutamine, 1% penicillin/stremptomycin, 0.5% amphotericin B, and incubated at 37 °C with 5% CO2. NSeMorph and NSeAze were dissolved in cell culture-grade DMSO and further diluted in complete medium for experimental use. For phototoxicity analysis, cells were administered with NSeMorph […]
(§4) mW/cm2) irradiation for 2 h in NSeMorph-treated groups and 1 h in NSeAze-treated groups. Then, each group were incubated for further 24 h in the dark to allow for resting. On the other hand, the dark toxicity of both agents was detected following the same treatment under identical conditions without LED irradiation. To determine the involvement of distinct ROS types, cells were pretreated for 1 h with selective […]
(§5) scavengers prior to photosensitizer exposure. The scavengers included NAC (5 mM), NaN3 (5 mM), histidine (5 mM), Tiron (100 µM), mannitol (25 mM) and Trolox (25 µM).
(§6) Cell viability was then assessed following irradiation. For index calculations, all cells were treated with the increasing concentrations (0.5-500 µM) of NSeMorph and NSeAze for 24 h. Final DMSO concentrations were kept below 0.5% (v/v) in all […]
(§7) PI=IC50, dark /IC50, light
(§8) SI= IC50, light, healthy cells/IC50, light, cancer cells
(§9) TI= IC50, dark, healthy cells/IC50, light, cancer cells
(§10) The viability of cells treated with NSeMorph and NSeAze was determined with MTT (3-[4,5-dimethylthiazol-2-yl]-2,5-diphenyltetrazoliumbromide) assay. Following the administration of both compounds, the medium was discarded and cells were treated with fresh media containing MTT (0.5 mg/ml) for 2-4 h at 37 °C. Formazan crystals were then solubilized in 10% SDS in 0.01 N HCl, and absorbance was measured at 490 and 570 nm wavelength using microplate reader (Multiskan Sky, Thermo Scientific). Data were normalized to vehicle (DMSO)-treated controls. IC50 values were calculated using nonlinear regression analysis in GraphPad Prism 9.02 (GraphPad Software Inc.). All experiments were performed in technical and biological replicates

[5] = test system: U118MG glioblastoma cells; assay: MTT cell viability, dark and PDT; format: cell-based, human; settings: for In vitro TI = IC50,dark,healthycells/IC50,light,cancercells / SI = IC50,light,healthycells/IC50,light,cancercells: L929 vs U118MG; for PI, phototoxicity index = IC50,dark/IC50,light: U118MG
Description: as §1, §2, §3, §4, §5, §6, §7, §8, §9, §10

U87MG cells [6] = assay: Subcellular co-localization by confocal microscopy (PCC); format: cell-based, human; settings: 2.5 μM; for PCC, lysosomal colocalization: across time points 0.5–4 h
U87MG cells [7] = assay: Cellular uptake assay; format: cell-based, human; settings: 100 μM, 1 h

| Compound | φΔ (%) singlet oxygen quantum yield [1] | Increase of oxidized DHR123 emission upon irradiation [2] | Cellular uptake (%) (U118MG cells [3]) | Peak PCC, colocalization with mitochondria (U118MG cells [4]; 1–2 h) | PCC, lysosomal colocalization (U118MG cells [4]) | Cellular uptake (%) (L929 cells) | In vitro TI = IC50,dark,healthycells/IC50,light,cancercells (U87MG glioblastoma cells) | SI = IC50,light,healthycells/IC50,light,cancercells (U87MG glioblastoma cells) | PI, phototoxicity index = IC50,dark/IC50,light (U87MG glioblastoma cells) | In vitro TI = IC50,dark,healthycells/IC50,light,cancercells [5] | SI = IC50,light,healthycells/IC50,light,cancercells [5] | PI, phototoxicity index = IC50,dark/IC50,light [5] | Peak PCC, colocalization with mitochondria (U87MG cells [6]; 1–2 h) | PCC, lysosomal colocalization (U87MG cells [6]) | Cellular uptake (%) (U87MG cells [7]) | PCC, colocalization with mitochondria (U118MG cells [4]; 4 h) | PCC, colocalization with mitochondria (U118MG cells [4]; early phase (0.5–1 h)) | PCC, colocalization with mitochondria (U87MG cells [6]; early phase (0.5–1 h)) |
| --- | --- | --- | --- | --- | --- | --- | --- | --- | --- | --- | --- | --- | --- | --- | --- | --- | --- | --- |
| c1cc2nc3ccc(=[N+]4CCC4)cc-3[se]c2cc1N1CCC1 [NSeAze] | 31% | 27 fold | 34–38% | 0.84–0.89 | 0.79–0.84 | ~22% | 287.6 and 288 | 0.99 | > 270 and 144.7 and 145 | 281.1 and 281 | 0.98 | > 245 and 131 | 0.84–0.89 | 0.79–0.84 | 34–38% | – | – | – |
| c1cc2nc3ccc(=[N+]4CCOCC4)cc-3[se]c2cc1N1CCOCC1 [NSeMorph] | 75% | 13 fold | < 2% | – | 0.75 to 0.82 | < 2% | >32 | > 1.26 | > 31 | > 62.3 and >62 | > 2.49 | > 46.7 and 46.7 and 47 | – | 0.75 to 0.82 | < 2% | 0.69 | 0.81 | 0.78 |
